The record followed here is PubChem BioAssay AID192 (DTP/NCI, 2004).

The test system of this assay is BDF1 mice, B16 melanoma ip, median survival T/C. Nature of the assay: NCI In Vivo Anticancer Drug Screen. Data for tumor model B16 Melanoma (intraperitoneal) in B6D2F1 (BDF1) mice. As to conditions: T/C endpoint: median survival time, higher T/C = longer survival. Summed up: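 Transplantable tumor model; survival or tumor size measured; reported as T/C, treated over vehicle control.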

Setting [1] is: dose: 200.0 mg/kg/injection, schedule: Q01DX009 (ip), vehicle: Klucel (hydroxypropylcellulose) (HPC).
Setting [2] is: dose: 100.0 mg/kg/injection, schedule: Q01DX009 (ip), vehicle: Klucel (hydroxypropylcellulose) (HPC).
The mark [3] stands for this setting: dose: 400.0 mg/kg/injection, schedule: Q01DX009 (ip), vehicle: Klucel (hydroxypropylcellulose) (HPC).

The structures appear in SMILES notation. The list shows only some results of the screen, not a fair sample: it gathers tests that were run many times, whatever their T/C, doses with no T/C, and many T/C values between a quarter and a half above the control. Further doses and runs are listed elsewhere. T/C gives the treated animals as a percentage of the vehicle group. Some doses have a count of surviving animals in place of a T/C: the source files T/C as zero there, which appears to mark a toxic dose or a test without result, not a measured value. Some doses without a T/C left all or most animals alive at the check, yet need not have been tolerated: the source hardly ever lists a survival T/C far under the control, and the zero likely stands for such cases as well. Counts of survivors are from the toxicity check (mostly the fifth day) where no day follows; animals may have died later. Schedule codes are those of the source, taken here to give the interval after Q, in days (D) or hours (H), and the number of doses after X. Some entries were tested several times; the results are listed from low to high. For survival time, this PubChem deposit counts one and a half times the control or more as active, and values a quarter to a half above the control carry no call in these data; other NCI protocols may use other cut-offs.

For the molecule `CCOC(=O)N1Cc2cc3cc(Cl)ccc3nc2C1`, the T/C (dose: 128.0 mg/kg/injection, schedule: Q01DX009 (ip), vehicle: saline with Tween-80) is 126 % of control. `C=C1C(=O)OC2CC1CCC1(C)OC1CCC(C)=CCCC2(C)O` (configuration not stated): the survivor count (dose: 3.7 mg/kg/injection, schedule: Q01DX009 (ip), vehicle: Klucel (hydroxypropylcellulose) (HPC)) was 10 of 10. Take `CC(=O)OCC1OC(S[As](C)C)C(OC(C)=O)C(OC(C)=O)C1OC(C)=O` (configuration not stated): under setting [1], the survivor count is given as 10 of 10. For `CC1(C)N=C(N)N=C(N)N1c1ccc(CCCCc2cccc(S(=O)(=O)F)c2)c(Cl)c1`, under “dose: 40.0 mg/kg/injection, schedule: Q01DX009 (ip), vehicle: saline”, the survivor count is 2 of 6. Regarding `CC1(C)N=C(N)N=C(N)N1c1ccc(OCC(=O)Nc2ccc(S(=O)(=O)F)cc2)c(Cl)c1`, the T/C (dose: 200.0 mg/kg/injection, schedule: Q04DX003 (ip), vehicle: saline) is 137 % of control. The survivor count (dose: 400.0 mg/kg/injection, schedule: Q04DX003 (ip), vehicle: saline) is 6 of 6.

With `O=C(Nc1ccccc1F)C(c1ccccc1)c1ccccc1`, the survivor count runs as follows: under setting [2], 10 of 10; under setting [3], 10 of 10. For `CCC[CH2][Sn-]([CH2]CCC)([CH2]CCC)[O]c1cc(Cl)c(Cl)cc1Cl`, the survivor count is 8 of 10 (dose: 2.5 mg/kg/injection, schedule: Q01DX009 (ip), vehicle: Klucel (hydroxypropylcellulose) (HPC)); 9 of 10 (dose: 5.0 mg/kg/injection, schedule: Q01DX009 (ip), vehicle: Klucel (hydroxypropylcellulose) (HPC)); 6 of 10 (dose: 10.0 mg/kg/injection, schedule: Q01DX009 (ip), vehicle: Klucel (hydroxypropylcellulose) (HPC)).

For the molecule `COc1c(Br)c2c(c(OC)c1OC)-c1ccc(OC)c(=O)cc1C(NC(C)=O)CC2` (configuration not stated), where the note is “dose: 6.0 mg/kg/injection, schedule: Q01DX009 (ip), vehicle: Klucel (hydroxypropylcellulose) (HPC)”, the survivor count is recorded as 10 of 10. With `O=[N+]([O-])c1cccnc1Oc1cccc(C(F)(F)F)c1`, for the setting “dose: 300.0 mg/kg/injection, schedule: Q04DX003 (ip), vehicle: Klucel (hydroxypropylcellulose) (HPC)”, the survivor count is recorded as 9 of 10. In the case of `COc1cc2c(cc1OC)C1CCN3CCCC3N1CC2` (configuration not stated), the survivor count reads like this: under setting [1], 2 of 10 and 5 of 10; under setting [3], 0 of 10. On to `COc1ccc(C(Nc2ccccc2)C(=O)c2ccccc2)cc1` (configuration not stated), for which the survivor count is reported as 7 of 10 (dose: 50.0 mg/kg/injection, schedule: Q01DX009 (ip), vehicle: Klucel (hydroxypropylcellulose) (HPC)) and 10 of 10 under setting [2].
